Reference: PMC10923887
Results are given in words; binding and its absence hold for the method and conditions named. In cells and extracts the contact can be indirect. For some of these results: A result given as binding can be weak or reduced; the word gives no strength. For some of these results: Tags and fused reporters may be left off the sequences shown.

By UniProt entry, the sequences of proteins in these tests, tags left out. Where a name states a change or a piece, a line headed by the entry shows the natural chain unless it says otherwise.
UniProt Q6RJR6: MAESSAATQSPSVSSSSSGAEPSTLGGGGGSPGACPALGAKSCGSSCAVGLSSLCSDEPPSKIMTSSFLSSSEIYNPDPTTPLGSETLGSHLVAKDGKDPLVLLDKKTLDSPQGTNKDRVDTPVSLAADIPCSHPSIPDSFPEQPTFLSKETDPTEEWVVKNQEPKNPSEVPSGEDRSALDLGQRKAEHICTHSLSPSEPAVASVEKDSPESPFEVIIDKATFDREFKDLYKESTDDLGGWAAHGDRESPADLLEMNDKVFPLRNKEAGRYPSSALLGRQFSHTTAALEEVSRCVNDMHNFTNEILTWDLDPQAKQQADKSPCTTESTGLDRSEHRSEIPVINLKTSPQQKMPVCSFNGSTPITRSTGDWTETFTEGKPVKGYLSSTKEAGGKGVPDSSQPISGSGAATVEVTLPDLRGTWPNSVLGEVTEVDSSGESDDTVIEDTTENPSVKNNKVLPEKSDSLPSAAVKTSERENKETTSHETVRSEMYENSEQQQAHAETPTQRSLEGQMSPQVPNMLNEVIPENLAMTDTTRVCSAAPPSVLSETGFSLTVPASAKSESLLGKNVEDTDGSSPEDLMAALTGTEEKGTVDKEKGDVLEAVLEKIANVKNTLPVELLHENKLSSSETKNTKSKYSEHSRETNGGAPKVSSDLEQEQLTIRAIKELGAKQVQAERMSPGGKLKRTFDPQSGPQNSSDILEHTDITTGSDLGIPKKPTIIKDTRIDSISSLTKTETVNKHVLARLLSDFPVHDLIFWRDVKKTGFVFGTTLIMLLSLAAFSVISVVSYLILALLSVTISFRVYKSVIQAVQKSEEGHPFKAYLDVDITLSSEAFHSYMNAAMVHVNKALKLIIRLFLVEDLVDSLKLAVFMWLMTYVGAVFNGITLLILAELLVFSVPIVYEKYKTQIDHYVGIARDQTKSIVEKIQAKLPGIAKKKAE
UniProt Q9ES97: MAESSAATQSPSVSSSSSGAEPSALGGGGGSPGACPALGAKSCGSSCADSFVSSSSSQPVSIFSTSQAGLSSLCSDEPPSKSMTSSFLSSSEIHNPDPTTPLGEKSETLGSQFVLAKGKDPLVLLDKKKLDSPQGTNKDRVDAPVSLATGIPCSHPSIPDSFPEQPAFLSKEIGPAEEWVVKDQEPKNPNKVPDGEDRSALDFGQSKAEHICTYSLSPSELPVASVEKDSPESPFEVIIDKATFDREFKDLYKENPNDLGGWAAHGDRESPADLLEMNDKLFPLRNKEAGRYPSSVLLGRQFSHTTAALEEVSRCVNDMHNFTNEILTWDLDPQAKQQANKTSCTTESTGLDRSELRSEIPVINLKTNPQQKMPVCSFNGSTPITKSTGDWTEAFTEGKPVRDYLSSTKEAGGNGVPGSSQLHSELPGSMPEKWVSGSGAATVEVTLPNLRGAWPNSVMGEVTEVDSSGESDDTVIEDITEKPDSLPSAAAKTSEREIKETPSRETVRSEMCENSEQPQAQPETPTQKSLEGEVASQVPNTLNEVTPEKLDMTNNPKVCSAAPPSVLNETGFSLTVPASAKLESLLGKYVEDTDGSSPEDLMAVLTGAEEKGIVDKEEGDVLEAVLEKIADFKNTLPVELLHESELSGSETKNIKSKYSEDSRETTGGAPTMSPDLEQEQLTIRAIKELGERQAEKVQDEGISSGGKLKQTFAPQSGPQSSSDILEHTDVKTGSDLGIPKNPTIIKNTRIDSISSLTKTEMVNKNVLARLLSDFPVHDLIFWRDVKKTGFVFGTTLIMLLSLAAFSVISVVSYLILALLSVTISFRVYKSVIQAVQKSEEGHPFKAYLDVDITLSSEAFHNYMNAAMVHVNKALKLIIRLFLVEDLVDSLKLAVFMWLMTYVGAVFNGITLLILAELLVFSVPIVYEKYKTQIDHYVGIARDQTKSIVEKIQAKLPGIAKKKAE

Key:
[1] = molecular target: T1, Fatty Acid Binding Protein 5 (mouse heart) (mouse (endogenous in cardiac tissue)) (UniProt Q05816); assay: co-IP; endogenous proteins in cardiac tissues of mice; Pierce Classic Magnetic IP/Co-IP Kit
T1 sequence: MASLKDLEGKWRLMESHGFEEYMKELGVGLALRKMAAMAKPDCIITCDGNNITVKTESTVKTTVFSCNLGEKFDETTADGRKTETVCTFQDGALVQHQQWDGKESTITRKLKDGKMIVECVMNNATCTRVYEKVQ

[2] = molecular target: T2, Fatty Acid Binding Protein 5 (rat (endogenous in NRVCs)) (UniProt P55053); assay: co-IP; endogenous proteins in NRVCs, IP with anti-RTN3 or anti-FABP5, normal rabbit IgG as control; Pierce Classic Magnetic IP/Co-IP Kit; with or without palmitate treatment
T2 sequence: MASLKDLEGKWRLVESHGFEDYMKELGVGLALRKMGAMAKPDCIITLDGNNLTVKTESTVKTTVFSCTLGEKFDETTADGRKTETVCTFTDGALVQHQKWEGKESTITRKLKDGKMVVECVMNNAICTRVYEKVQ

[3] = molecular target: Reticulon 3 (rat (endogenous in NRVCs)) (UniProt Q6RJR6); assay: as above
[4] = molecular target: RTN3-3xflag (full length); assay: co-IP; 293T cells with myc-tagged FABP5 and flag-tagged RTN3 full length or truncated forms; IP with anti-Flag
[5] = molecular target: RTN3 R1-3xflag (1st-194th amino acids, lacking C-termini); assay: as above
[6] = molecular target: RTN3 R2-3xflag (65th-236th amino acids, lacking N-termini); assay: as above
[7] = molecular target: Reticulon 3 (mouse heart) (mouse (endogenous in cardiac tissue)) (UniProt Q9ES97); assay: co-IP; endogenous proteins in cardiac tissues of mice; Pierce Classic Magnetic IP/Co-IP Kit

For “Reticulon 3 (mouse heart) (from UniProt Q9ES97-3)”, the binding [1] was “binds”.

In the case of Reticulon 3 (from UniProt Q6RJR6-2), the binding [2] is reported as “binds”.

B1: Fatty Acid Binding Protein 5 (protein, UniProt P55053 1-135)
chain: T2 sequence
For B1, the binding [3] was “binds”.

B2: FABP5-myc (protein, UniProt P55053 1-135)
chain: T2 sequence
B2 was tested, and the binding [4] was “binds”, the binding [5] was “binds” and the binding [6] was “no binding”.

B3: Fatty Acid Binding Protein 5 (mouse heart) (protein, UniProt Q05816 1-135)
chain: T1 sequence
In the case of B3, the binding [7] is reported as “binds”.
